Test results: PMC8396294

T1: Transglutaminase 6 (TG6) with a C-terminal Strep2 tag (UniProt O95932)
T1 sequence: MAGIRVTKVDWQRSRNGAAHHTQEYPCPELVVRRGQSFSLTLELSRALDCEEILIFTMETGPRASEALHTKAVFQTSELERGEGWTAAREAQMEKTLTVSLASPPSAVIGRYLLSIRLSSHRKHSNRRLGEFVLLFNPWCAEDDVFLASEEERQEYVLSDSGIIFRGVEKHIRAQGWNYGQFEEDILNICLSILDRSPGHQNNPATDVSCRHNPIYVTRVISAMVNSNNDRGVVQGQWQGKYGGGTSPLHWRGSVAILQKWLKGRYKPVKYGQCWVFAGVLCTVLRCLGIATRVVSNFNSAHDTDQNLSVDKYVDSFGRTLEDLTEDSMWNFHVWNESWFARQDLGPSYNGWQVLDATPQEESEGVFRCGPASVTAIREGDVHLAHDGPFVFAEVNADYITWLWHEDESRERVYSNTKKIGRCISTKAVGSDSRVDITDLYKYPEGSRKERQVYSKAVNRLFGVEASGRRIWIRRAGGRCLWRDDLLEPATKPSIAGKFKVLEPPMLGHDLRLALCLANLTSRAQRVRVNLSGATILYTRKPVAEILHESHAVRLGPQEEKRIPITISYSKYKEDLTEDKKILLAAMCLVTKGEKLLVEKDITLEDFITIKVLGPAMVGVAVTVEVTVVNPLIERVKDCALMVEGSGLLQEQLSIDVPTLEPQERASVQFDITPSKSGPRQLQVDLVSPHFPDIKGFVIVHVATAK


What was measured:
[1] = biological target: T1, Transglutaminase 6 (TG6) with a C-terminal Strep2 tag; assay: co-IP; lysates of transiently double transfected SH-SY5Y cells; TG6 precipitated with the anti-STREP II-tag antibody, Protein A/G agarose; huntingtin variants detected by blot
[2] = biological target: Huntingtin exon 1 fragment with 25 glutamines, C-terminal EGFP; assay: co-IP; lysates (soluble fractions) of transiently double transfected SH-SY5Y cells; huntingtin variants precipitated (antibodies named in the methods: mab2166, anti-polyglutamine 1C2, anti-EGFP), Protein A/G agarose; TG6 detected with anti-Strep II antibody
[3] = biological target: Mutant huntingtin exon 1 fragment with 97 glutamines, C-terminal EGFP; assay: as above

Row | Molecule | binding [1] | binding [2] | binding [3]
1 | Mutant huntingtin exon 1 fragment with 97 glutamines, C-terminal EGFP (domain or fragment) | binds |  | 
2 | Transglutaminase 6 (TG6) with a C-terminal Strep2 tag (enzyme, UniProt O95932 1-706) MAGIRVTKVDWQRSRNGAAHHTQEYPCPELVVRRGQSFSLTLELSRALDCEEILIFTMETGPRASEALHTKAVFQTSELERGEGWTAAREAQMEKTLTVSLASPPSAVIGRYLLSIRLSSHRKHSNRRLGEFVLLFNPWCAEDDVFLASEEERQEYVLSDSGIIFRGVEKHIRAQGWNYGQFEEDILNICLSILDRSPGHQNNPATDVSCRHNPIYVTRVISAMVNSNNDRGVVQGQWQGKYGGGTSPLHWRGSVAILQKWLKGRYKPVKYGQCWVFAGVLCTVLRCLGIATRVVSNFNSAHDTDQNLSVDKYVDSFGRTLEDLTEDSMWNFHVWNESWFARQDLGPSYNGWQVLDATPQEESEGVFRCGPASVTAIREGDVHLAHDGPFVFAEVNADYITWLWHEDESRERVYSNTKKIGRCISTKAVGSDSRVDITDLYKYPEGSRKERQVYSKAVNRLFGVEASGRRIWIRRAGGRCLWRDDLLEPATKPSIAGKFKVLEPPMLGHDLRLALCLANLTSRAQRVRVNLSGATILYTRKPVAEILHESHAVRLGPQEEKRIPITISYSKYKEDLTEDKKILLAAMCLVTKGEKLLVEKDITLEDFITIKVLGPAMVGVAVTVEVTVVNPLIERVKDCALMVEGSGLLQEQLSIDVPTLEPQERASVQFDITPSKSGPRQLQVDLVSPHFPDIKGFVIVHVATAK |  | binds | binds

Results are given in words; binding and its absence hold for the method and conditions named. In cells and extracts the contact can be indirect. A result given as binding can be weak or reduced; the word gives no strength. Where a sequence is shown, tags or fusion partners need not be part of it.
